These are yes or no findings as the source states them, for the method shown.
Key:
[1] = target: binase, secreted guanyl-preferring ribonuclease of Bacillus pumilus (Bacillus pumilus) (UniProt P00649); assay: condition: only less than 50 ng of enzyme in the presence of 0.1% SDS; SDS-PAGE; binase at nanoconcentrations (less than 50 ng) in the presence of 0.1% SDS; SDS/protein ratio more than 1000; both purified
[2] = target: binase, secreted guanyl-preferring ribonuclease of Bacillus pumilus (Bacillus pumilus) (UniProt P00649); assay: condition: only less than 50 ng of enzyme, after electrophoresis with SDS; zymogram (in-gel detection of catalytic activity after PAGE); binase at nanoconcentrations (less than 50 ng); both purified

B1: binase, secreted guanyl-preferring ribonuclease of Bacillus pumilus (enzyme, UniProt P00649 54-162, looked up)
chain: AVINTFDGVADYLIRYKRLPDNYITKSQASALGWVASKGNLAEVAPGKSIGGDVFSNREGRLPSASGRTWREADINYVSGFRNADRLVYSSDWLIYKTTDHYATFTRIR
notes: binase, secreted ribonuclease of Bacillus pumilus (formerly Bacillus intermedius); also called B. pumilus secreted RNase; Bacillus intermedius RNase; source: isolated from B. pumilus culture fluid, purified
B1 was tested, and the binding [1] was “no binding” and the binding [2] was “no binding”.

— article PMC6196983, “The Native Monomer of Bacillus Pumilus Ribonuclease Does Not Exist Extracellularly” (BioMed Research International, 2018)
